Binding data for 1 substance are collected here from publication PMC11912016.

The chains behind the UniProt entries cited, without tags or fusion partners.
UniProt P43006: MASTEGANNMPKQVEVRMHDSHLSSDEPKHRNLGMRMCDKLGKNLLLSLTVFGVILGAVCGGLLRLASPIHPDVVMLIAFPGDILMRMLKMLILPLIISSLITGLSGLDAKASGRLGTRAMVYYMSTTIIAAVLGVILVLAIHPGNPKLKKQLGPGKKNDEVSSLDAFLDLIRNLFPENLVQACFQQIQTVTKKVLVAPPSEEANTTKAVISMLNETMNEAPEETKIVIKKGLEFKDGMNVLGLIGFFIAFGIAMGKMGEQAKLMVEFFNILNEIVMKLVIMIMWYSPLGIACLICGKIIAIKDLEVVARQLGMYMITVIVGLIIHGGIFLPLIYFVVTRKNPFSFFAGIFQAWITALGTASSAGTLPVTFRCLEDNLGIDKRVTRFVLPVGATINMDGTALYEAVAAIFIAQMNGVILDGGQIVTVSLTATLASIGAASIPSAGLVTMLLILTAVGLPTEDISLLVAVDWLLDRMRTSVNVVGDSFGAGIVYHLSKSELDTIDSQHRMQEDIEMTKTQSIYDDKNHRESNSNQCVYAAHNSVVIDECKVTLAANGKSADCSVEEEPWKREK

Results are given in words; binding and its absence hold for the method and conditions named. In cells and extracts the contact can be indirect. A yes stands for co-enrichment or nearness to the bait. Other partners may have been found.

The target of this assay is T1, Crystallin alpha B (CRYAB) (mouse (endogenous in NAcc)) (UniProt P23927).
T1 sequence: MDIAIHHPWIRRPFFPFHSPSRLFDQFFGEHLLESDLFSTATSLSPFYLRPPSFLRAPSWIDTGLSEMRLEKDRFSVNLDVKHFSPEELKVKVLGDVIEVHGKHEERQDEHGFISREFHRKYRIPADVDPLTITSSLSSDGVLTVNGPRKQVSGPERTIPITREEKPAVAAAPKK
Put plainly: affinity purification with mass spectrometry; co-IP with CRYAB antibody from NAcc of control or cocaine (10 mg/kg) treated mice, protein A/G magnetic beads, eluate analysed by LC-MS/MS.

Regarding “excitatory amino acid transporter 2 (EAAT2) (from UniProt P43006 1-572)”, the binding entry is on record as “binds”.
